# Test results reported in patent publication US20120058158A1, “Sublingual Pharmaceutical Composition Comprising a Neutral Oil” (priority 2009, published 2012).
# At least one read-out could not be matched to a standard name with certainty.
# Experiment: Single-dose pharmacokinetic study, artemether sublingual spray vs oral tablets
# Format: in vivo, human
# Details: equivalent doses
# Method: Trials were carried out on healthy male adult human volunteers (16 subjects per cohort), and subject to normal ethical approval. Three single-dose regimes according to the present invention were studied, and compared to a regime using oral-dosed tablets, as follows: Spray formulations of artemether were prepared as detailed above, and administered, on a single occasion, to a group of volunteers by the sublingual route. […] Following administration of each dosage regime, blood samples were taken from the subjects, and plasma concentrations of artemether and its immediate metabolite dihydroartemesinin were determined, in order to compare bioavailability by the two routes.
structure (smiles),measurement,value
CO[C@H]1O[C@@H]2O[C@@]3(C)CC[C@H]4[C@H](C)CC[C@@H]([C@H]1C)[C@@]24OO3 [Artemether],indicative bioavailability by the sublingual route relative to the oral route,at least twice that by the oral route
